Patent publication US20210163308A1, “COMPOSITIONS AND METHODS FOR THE MODULATION OF CYTOKINES” (GALLEON LABS LLC, priority 2018, published 2021)

System: primary human cells (HDFSAg, HDF3CGF, KF3CT, HDFLPS systems)
Assay: Study CSM003-01-b: biomarker readouts in primary human cell systems, compounds in PBS
Conditions: p<0.01, outside of the envelope, effect size of at least 20%

`O.O.O.O.O.O.[Cl-].[Cl-].[Sr+2]` [Strontium chloride hexahydrate] was tested, and the “number of annotated biomarkers” value was 6.
`O=[N+]([O-])[O-].O=[N+]([O-])[O-].[Sr+2]` [Strontium nitrate, Strontium Nitrate] was tested, and the “number of annotated biomarkers” value was 4.
